Measurements reported in US7432045B2 (priority 2003, dated 2008).
Strings that start with PEPTIDE1 are HELM notation: dots part the residues, brackets hold end groups and non-standard residues.

Assay: peptide synthesis
Conditions: whole synthesis

Substance | purity (crude or final not stated)
^NH2GRKKRRQRRR^amide | 96%
^b-Y GRKKRRQRRRPGDVYANGLVA^COOH | 90%
PEPTIDE1{[BiotinAhx].Y.G.R.K.K.R.R.Q.R.R.R.P.G.Y.A.G.A.V.V.N.D.L}$$$$V2.0 | 79%
^b-GRKKRRQRRRC^amide | 91%
PEPTIDE1{G.R.K.K.R.R.Q.R.R.R.P.L.A.A.L.P.L.V.L.A.A.P.L.A.V.L.A}$$$$V2.0 | 84%
PEPTIDE1{[BiotinAhx].Y.G.R.K.K.R.R.Q.R.R.R.P.L.A.A.L.P.L.V.L.A.A.P.L.A.V.L.A}$$$$V2.0 | 99%
^b-LAVLAPGRKKRRQRRRC^amide | 70%
PEPTIDE1{G.R.K.K.R.R.Q.R.R.R.C}$$$$V2.0 | 97%
PEPTIDE1{[BiotinAhx].L.A.A.L.P.L.V.L.A.A.P.L.A.V.L.A.P.G.R.K.K.R.R.Q.R.R.R.C.[am]}$$$$V2.0 | 92%
PEPTIDE1{[BiotinAhx].L.V.L.A.A.P.L.A.V.L.A.P.G.R.K.K.R.R.Q.R.R.R.C.[am]}$$$$V2.0 | 63%
